Laboratory results as given in article PMC3780650.
These are yes or no findings as the source states them, for the method shown. In cells and extracts the contact can be indirect. Some binding calls cover weakened binding; strength is not graded here.

Chains of the proteins cited; added tags and fusions are not shown.
UniProt O00159: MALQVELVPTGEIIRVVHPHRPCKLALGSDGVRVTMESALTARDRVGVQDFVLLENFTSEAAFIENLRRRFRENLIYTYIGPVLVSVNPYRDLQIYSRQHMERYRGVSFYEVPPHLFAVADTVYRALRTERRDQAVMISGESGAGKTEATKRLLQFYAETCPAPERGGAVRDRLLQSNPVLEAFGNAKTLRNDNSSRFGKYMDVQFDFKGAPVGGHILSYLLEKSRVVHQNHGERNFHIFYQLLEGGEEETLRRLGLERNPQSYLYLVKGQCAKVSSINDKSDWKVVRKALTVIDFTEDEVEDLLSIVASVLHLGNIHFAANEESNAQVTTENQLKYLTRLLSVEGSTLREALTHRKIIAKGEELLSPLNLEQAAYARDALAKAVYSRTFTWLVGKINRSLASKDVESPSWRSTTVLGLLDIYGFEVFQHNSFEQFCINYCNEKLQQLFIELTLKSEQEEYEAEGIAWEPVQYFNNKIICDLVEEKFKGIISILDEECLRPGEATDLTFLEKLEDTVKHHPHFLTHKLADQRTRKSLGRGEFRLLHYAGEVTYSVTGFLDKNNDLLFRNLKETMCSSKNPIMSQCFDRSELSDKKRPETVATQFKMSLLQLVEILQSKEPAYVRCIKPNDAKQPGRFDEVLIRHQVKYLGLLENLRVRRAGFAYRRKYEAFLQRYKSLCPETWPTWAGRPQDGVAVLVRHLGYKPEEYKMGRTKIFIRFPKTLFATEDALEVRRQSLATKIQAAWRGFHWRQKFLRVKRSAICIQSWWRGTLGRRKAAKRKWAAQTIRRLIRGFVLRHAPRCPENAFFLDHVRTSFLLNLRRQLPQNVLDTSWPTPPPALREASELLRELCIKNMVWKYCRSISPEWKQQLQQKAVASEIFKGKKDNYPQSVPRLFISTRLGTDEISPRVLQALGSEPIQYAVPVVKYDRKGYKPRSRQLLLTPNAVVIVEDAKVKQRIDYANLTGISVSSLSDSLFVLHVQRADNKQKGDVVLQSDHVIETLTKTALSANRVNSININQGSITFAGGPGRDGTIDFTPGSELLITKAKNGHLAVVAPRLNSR

Key:
[1] = molecular target: Myosin-1c (human (endogenous in SV589 and H1299)) (UniProt O00159); test: co-IP; endogenous proteins from SV589 fibroblast lysate (TETN/OG: 25 mM Tris-HCl pH 7.5, 5 mM EDTA, 150 mM NaCl, 1% Triton X-100, 60 mM octylglucoside, with 10 mM CaCl2); 10 ug rabbit anti-cavin-3 or anti-myosin-1c, 1 hr 37°C, Protein A/G beads 4 hr 4°C; washes with 500 mM and 250 mM NaCl; immunoblot
[2] = molecular target: Myosin-1c (human (endogenous in SV589 and H1299)) (UniProt O00159); test: co-IP; lysate of H/Cavin-3 cells (H1299 stably expressing cavin-3); IP with anti-myosin-1c, Protein A/G beads, immunoblot

binding [1]	binding [2]	Binder
binds	–	Cavin-3 (protein, UniProt Q969G5 1-261) MRESALERGPVPEAPAGGPVHAVTVVTLLEKLASMLETLRERQGGLARRQGGLAGSVRRIQSGLGALSRSHDTTSNTLAQLLAKAERVSSHANAAQERAVRRAAQVQRLEANHGLLVARGKLHVLLFKEEGEVPASAFQKAPEPLGPADQSELGPEQLEAEVGESSDEEPVESRAQRLRRTGLQKVQSLRRALSGRKGPAAPPPTPVKPPRLGPGRSAEAQPEAQPALEPTLEPEPPQDTEEDPGRPGAAEEALLQMESVA
–	binds	Cavin-3 stably expressed in H1299 cells (H/Cavin-3 cells) (protein, UniProt Q969G5 1-261) MRESALERGPVPEAPAGGPVHAVTVVTLLEKLASMLETLRERQGGLARRQGGLAGSVRRIQSGLGALSRSHDTTSNTLAQLLAKAERVSSHANAAQERAVRRAAQVQRLEANHGLLVARGKLHVLLFKEEGEVPASAFQKAPEPLGPADQSELGPEQLEAEVGESSDEEPVESRAQRLRRTGLQKVQSLRRALSGRKGPAAPPPTPVKPPRLGPGRSAEAQPEAQPALEPTLEPEPPQDTEEDPGRPGAAEEALLQMESVA
